Primary screen of a compound library

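Whole-parasite assay of Trypanosoma brucei over 72 hours; the read-out is not stated. Concentration: 30 µM. Higher reads as stronger inhibition (inferred: compounds with an IC50 in retests scored well above the rest). Values scatter widely below zero; nearly all retest evidence comes from the higher of the two concentrations used. About 64,000 compounds were tested under these conditions; 1.5% (about 940) showed 50% or more at least once.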

Values are the deposited “Percent Effect”, in %. How 0% and 100% were set is not recorded. Most values in the screen are low, and negative values occur. Compounds were drawn at random from those tested, without regard to their results.

{"smiles": "Nc1nnc(Cn2nnc(-c3ccccc3F)n2)s1", "effect": -6.616}
{"smiles": "O=C(CNC(=O)C1CCCC1)NCC(O)c1ccc2ccccc2c1", "stereo": "stereo unspecified", "effect": -4.096}
{"smiles": "O=C(c1ccc(O)c(Cl)c1)N1CCN(c2nccs2)CC1", "effect": -5.711}
{"smiles": "COCCn1/c(=N\\C(=O)CN(C)S(C)(=O)=O)sc2cc(OC)ccc21", "effect": -16.95}
{"smiles": "CCCc1cncnc1N1CCC(NCc2cc3ccccc3[nH]2)CC1", "effect": -90}
{"smiles": "Cc1c(Cn2ccnc2-c2cc(CN(C)C)cs2)cnn1C", "effect": -12}
{"smiles": "CC(C)CC(=O)N[C@H](C)c1c(-c2ccc(Cl)cc2)noc1C(=O)O.Cl", "effect": -10.36}
{"smiles": "Br.CCOc1ccc(N(CC(=O)c2ccccc2)C2=NCCCCC2)cc1", "effect": 25.81}
{"smiles": "Cc1cc2c(=O)n(CCOCCO)cnc2s1", "effect": -20.14}
{"smiles": "O=C(Cc1csc(N2CCNC2=O)n1)NC1(c2ccccc2)CCC1", "effect": -12.23}
{"smiles": "O=C(O)C(F)(F)F.O=C(O)C(F)(F)F.[H][C@@]12C[C@@H](Oc3cccnc3)CN1CCN(C(=O)c1ccc(F)cc1)C2", "effect": 18.44}
{"smiles": "N#Cc1ccc(C(=O)N(Cc2ccncc2)C2CC2)cc1", "effect": 14.78}
{"smiles": "Cc1nnc(N2CCCC3(CN(Cc4cnn(C)c4)CCO3)C2)o1.O=C(O)C(F)(F)F.O=C(O)C(F)(F)F", "stereo": "stereo unspecified", "effect": -1.883}
{"smiles": "CC(C)c1noc(CS(=O)(=O)CC(=O)NCCOc2ccccc2)n1", "effect": -4.919}
{"smiles": "Cc1ncncc1C(=O)N1CCCC(c2[nH]ncc2S(C)(=O)=O)C1", "stereo": "stereo unspecified", "effect": 9.13}
{"smiles": "Cc1nc2c(c(=O)n1C)CN(C(=O)C1CCCN(CC(N)=O)C1)C2", "stereo": "stereo unspecified", "effect": -59.26}
{"smiles": "CCn1nc(C)c2nc(C(C)C)nc(NCC(=O)N3CCOCC3)c21", "effect": -23.63}
{"smiles": "CC(=O)NCc1ccc(C(=O)N2CCCc3c(F)ccc(C)c32)cc1", "effect": -8.152}
{"smiles": "Cn1nc(C2CNCCO2)cc1CCOc1ccc(C(F)(F)F)cc1", "stereo": "stereo unspecified", "effect": 20.05}
{"smiles": "Cc1ccc(-c2nc(C(=O)N(C)CC(=O)N(C)C)cs2)c(C)c1", "effect": -13.98}
{"smiles": "Cc1nn(C)c2c(N3CCN(C(=O)C(C)C)CC3)ncnc12", "effect": -12.31}
{"smiles": "CCc1cc(C)c(C(=O)N2CCCC(c3nnn[nH]3)C2)o1", "stereo": "stereo unspecified", "effect": -42.38}
{"smiles": "CC(=O)N1CCN(C(=O)Cn2ccc3c(Cl)cccc32)CC1", "effect": 2.472}
{"smiles": "CN(C)c1cc(C(=O)N2CCCN(Cc3cscn3)CC2)ccn1", "effect": 8.025}
{"smiles": "Cc1nnc(CN(Cc2cccc(Br)c2)C2CC2)o1", "effect": -22.16}
{"smiles": "Cc1ccc(C(=O)Nc2cc(C(N)=O)ccc2N2CCCCC2)cc1F", "effect": -3.214}
{"smiles": "CN1CCCc2ccc(S(=O)(=O)NC(=O)C3CC=CC3)cc21", "effect": -44.36}
{"smiles": "CCC(CO)N(Cc1cccnc1)C(=O)c1ccc(C)[nH]c1=O", "stereo": "stereo unspecified", "effect": -16.16}
{"smiles": "Cc1cccc(C)c1OCCNC(=O)C[S+]([O-])C1CCCC1", "stereo": "stereo unspecified", "effect": -18.52}
{"smiles": "CNC(=O)c1cccc(CCNc2ncc(Br)cn2)c1", "effect": 20.14}
{"smiles": "CC(O)C(=O)N1CCC(c2[nH]ncc2-c2ccccc2)CC1", "stereo": "stereo unspecified", "effect": -28.05}
{"smiles": "COC(=O)CNC(=O)CCCn1cnc2ccccc2c1=O", "effect": -15.74}
{"smiles": "CC(C)(C)c1ccn(C2(C(=O)O)CCN(c3ncccc3C#N)CC2)n1", "effect": -12.07}
{"smiles": "O=C1CCc2cc(S(=O)(=O)NC(=O)c3ccc4c(c3)CCO4)ccc2N1", "effect": -25.91}
{"smiles": "CN1CCN(C[C@@H]2CN(C3Cc4ccccc4C3)C[C@@H]2CO)CC1", "effect": 7.468}
{"smiles": "Cn1cc(C2CCCN2C(=O)COCCOc2ccccc2)cn1", "stereo": "stereo unspecified", "effect": -7.844}
{"smiles": "CC(C)c1nnc2n1CCN(Cc1csc(CC(=O)N(C)C)n1)C2", "effect": -82.12}
{"smiles": "CN(C)CCNC(=O)C1Cc2nc(-c3ccsc3)sc2N1CC1CC1.O=C(O)C(F)(F)F", "stereo": "stereo unspecified", "effect": 5.041}
{"smiles": "CC(=O)N1CCC(C(=O)NCCc2c[nH]c3cc(C)ccc23)CC1", "effect": -38.75}
{"smiles": "O=c1n(CC2COCCO2)nc(CC2CCNCC2)n1-c1ccccc1", "stereo": "stereo unspecified", "effect": 0.5006}
{"smiles": "CC(C)c1nc(CN(C)C(=O)[C@H](N)Cc2ccc(Cl)cc2)cs1", "effect": -3.528}
{"smiles": "CN(Cc1ccc(F)cc1)Cc1nc(-c2cnccn2)no1", "effect": 9.804}
{"smiles": "COc1ccccc1-c1ncc(CN2CCCC(CCC(N)=O)C2)s1", "stereo": "stereo unspecified", "effect": 7.391}
{"smiles": "CCc1nc(C2CCCN2CCn2cncn2)no1", "stereo": "stereo unspecified", "effect": 7.079}
{"smiles": "CSC(C)C(=O)NCc1ccc(-n2cncn2)nc1", "stereo": "stereo unspecified", "effect": 17.8}
{"smiles": "O=C(O)C(F)(F)F.[H][C@@]12CCCO[C@]1([H])[C@H](N(C)C)CN2C(=O)c1ccc(C#N)cc1", "effect": -40.12}
{"smiles": "CCn1nc(C)c(NC(=O)c2cc(NC(=O)C3CC3)n(C)n2)c1C", "effect": -35.31}

For reference, 6 entries once more:

| SMILES | effect |
|---|---|
| `CN(Cc1ccc(F)cc1)Cc1nc(-c2cnccn2)no1` | 9.804 |
| `CSC(C)C(=O)NCc1ccc(-n2cncn2)nc1` (stereo unspecified) | 17.8 |
| `CN1CCN(C[C@@H]2CN(C3Cc4ccccc4C3)C[C@@H]2CO)CC1` | 7.468 |
| `Cc1cccc(C)c1OCCNC(=O)C[S+]([O-])C1CCCC1` (stereo unspecified) | -18.52 |
| `O=C(O)C(F)(F)F.[H][C@@]12CCCO[C@]1([H])[C@H](N(C)C)CN2C(=O)c1ccc(C#N)cc1` | -40.12 |
| `CC(C)c1noc(CS(=O)(=O)CC(=O)NCCOc2ccccc2)n1` | -4.919 |

Measurements from “University of Dundee, Small-Polar-MMV Screening Library” (2021), ChEMBL document CHEMBL3988442.